Experimental findings from the RNAGym collection of RNA variant scans (doi:10.1126/science.aae0568) are described below.

Sequences and labels used below:
B1: tRNA (parent)
chain: GUUCCGUUGGCGUAAUGGUAACGCGUCUCCCUCCUAAGGAGAAGACUGCGGGUUCGAGUCCCGUACGGAACG

This sample is rich in variants without activity.

In this data set the parent is B1. Briefly: yeast fitness relative to wild type (ratio to wild type); higher = fitter; tRNA-Arg(CCU), competitive growth, 37 C, YPD. The procedure, abridged:
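Start and end populations of a pooled competition were compared by 100-nucleotide paired-end sequencing of gene amplicons. The Saccharomyces cerevisiae strains carried tRNA-Arg(CCU) gene variants at the native genomic locus, synthesised with a 3% per-site mutation rate at 69 sites, and competed in YPD at 37°C for 24 hours in six parallel replicates. Darwinian fitness relative to wild type was based on the change in genotype frequencies. Genotypes required ≥ 100 starting reads, and estimates < 0.5 were set to 0.5.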
In the case of GUUUUGUUGGCGUCAUGGUAACGCGUCUCCCUCCUAAGGAGAAGACUGCGGGUUCGAGUCCCGUACGGAGCG, the yeast fitness is ≤ 0.5. As for GUUCCGUUGGAGUAACGCUAACGCGUCUCCCUCCUAAGGAGAAGACUGCGGGUUCGAGUCCCGUACGGAACG, the yeast fitness was ≤ 0.5. As for GUUCCGUUGGCGUAAUGGUAACGCGUCUCUCUCCCAAGGAGAAGACUGCGGGUUAGAGUCACGUACGGAACG, the figure is ≤ 0.5; as for GUUCCGUUGGCGUUAUGGUAACGGGUCUCCCUCCUAAGGAGAAGACUGCGGGUUCGAGUCCAGUACGGAACG, ≤ 0.5; as for GUUCCAUAGGCGUCAUGGUAUCGCGUCUCCCUCCUAAGGGGAAGACUGCGGGUUCGAGUCCCGUACGGAACG, ≤ 0.5. As for GUUCCGUUGGCGUAAUGGUAACGCCUGUCCCUCCUAAGGAGAAGACUGCGGGUUCGAGUCCCGUACGGAACG, the figure is 0.553; as for GUUCCGUUGGCGUAAUGGUAACGCGUCUUCCUCCUAAGGAGAACACUGCGGGUACGAGUCCCGUACGGAACG, 0.55; as for GUUCCGUUAGCGUAAUCGUAACGCGUCUCCCUCCUAAGGAGAAGUCUGCGGGUUCGAGUCCCGUUCGGCACG, ≤ 0.5. Regarding GUUCCGUUGGCGUAAUGGUAAUGCGUCUCCCUUCUAAGGAGAAGACUGCGGAUUCGAGUCCCGUACGGAACG, the yeast fitness was determined as 0.566. As to GUUCCGUUGGCGUAAUGGUAACGCGUAUCCCUCCAAAGGAGAAGACUACGGGUUCGACUCCCGUACGGAACG, the yeast fitness is ≤ 0.5. As for GUUCCGUUGGCGCAAUGGUAACGCGUCUACCUCCUAAGGAGAAGACUGCGCGUUCGAGGCCCGUACAGAACG, the figure is ≤ 0.5; as for GUUCCGUUGGCGUAAUGGUCACGCGUCUCACUCCUAAGGAGAAGACUGCGGGUUGGAGUCCCGUACGGAACG, 0.557; as for GUUGCGUUAGCGUAAUGGUAAUGCGUCUCCCUCCUAAGGAGAAGAGUGCGGGUUCCAGUCCCGUACGGAACG, ≤ 0.5. As for GUUCCGUUGGCGUAAUGGUAACGCGUCUCCCUCCUAAGGGGAAGACUGCGGGUUCGAGUCCCGCAAGGAACG, the figure is ≤ 0.5; as for GUUCCGUUGGCGCAAUGGUAACGCGUCUCCCUCCUAAGGAGAUGACUGCGGGUUCAAGUCCCGUACGGAACG, 0.797; as for GUUCCGUUGGCGUAAUGGUCACGUGUCUCCGUCCUAUGGAGAAGACUGCGGGUUCGAGUCCCGUACGGAACG, ≤ 0.5. Turning to GUUCAGUUGGCGUAAUGGUAUGGCGUCUCCCUCCUAAGGAGAAGACUGCGGGUUCGGGUUCCGUACGGAACG, the yeast fitness is ≤ 0.5. Regarding GUUCCGUUGGCGUAAUGGUAACGCGUCUCCCUUGUAAGGGGAAGACUGCGGGUUCGAGUCCCGUACGGAACG, the yeast fitness amounted to 0.625. For GUUCAGUUGGCGUUCUGGUAACGGGACUCCCUCCUAAGGAGAAGACUGCGGGUUCGAGUCCCAUACGGAACG, the yeast fitness was ≤ 0.5. As for GUUCCGUUGGCGUAAUGGUAACGAGUCUCCCUCCUAGGGAGAAGACUGCGGGUUCGAGUCCCGUACGGAACG, the figure is 0.513; as for GUUCCGUUGGCGUUAUGCUAACGCGUCUCCCUCCUAAGGAGAAGACUGCGGGUUCGAGUCCCGUACGGAACG, 0.583. As for GUACCGUUGGCGUAAUGGUAACGCGUCUCCCUCCUAAGGAGAGGACUGCGGGUUCGAGUUCUGUACGGACCG, the figure is ≤ 0.5. As for GUUCCGAUGGCGUAAUGGUAAUACGUCUCCCUCCUAAGGAGAAGAAUGCGGGUUCGAGUCGCGUACGGAACG, the figure is ≤ 0.5; as for GUUCCGUUAGCGUAAUGGUAACGCGUCUCCUUCCUACGGAGAAGACUGCGGGUUCGAGUCCCAUACGGAACG, ≤ 0.5; as for GUUCCGUUGGCGUAAUGGUUCUGCGUCUCCCUCCUAAGGAGAAGACUGCGGGUUCGAGUCCCGUACGGAACG, ≤ 0.5. On to GUUCGGUUGGCGUAAUGGUAAUGCGUCUCCCUCCUGAGGAGAAGACUGCGGGUUCGAGUACCGUACGGAACG, for which the yeast fitness is ≤ 0.5.

Take GUUCCGUUGGCGUAAUGGUAACGCGUCUGCCUCCUAAGGAGAAAACUGCGGGUUCCAGUCCAGUACCGAACG: the yeast fitness was ≤ 0.5. As for GUUCCGUUGGUGUAAUGGUAACGCGUCUCCCUCCUAAGGAGAAGACUGCGGGUUCGAGUCCCGUAUGGGACG, the figure is 0.639; as for GUUCCGUUGGCGUAAUGGUACCGCGUCUCCCUCCUAAGGAGAAGUCUGCGGGUUCGAGUCCCGUACAGAACG, ≤ 0.5; as for GUUCCGUUGGCGUAAUAGUAACGCGUCUCCUUCCUAAGGAGAAGACUGGGGGUUCGAGUCACGUACGGAACG, ≤ 0.5. As for GUUCGGUUGGCGUAAUGGUGACGCGUCUCCCUCCUAAGGAGAAGAUUGCGGGUUCGAGUCCCGUACGGAACG, the figure is 0.638; as for GUUCCGUUGGCGUAAUGGUAACGCGUCUCCCUGCUAAGGAGAAGACUGCGGGUUCGAGUCCCGUAGGGAGCG, 0.54. As for GUUCCGUUGGCCUAAUGGUAACGCGUCUCCCUCCUAAGGAGAAGACUGCGGGUUCGAGUCCCGUACGGCUCG, the figure is 0.688. Consider GUUCCGUUGGCGUAACGGUAACGCGUCUCCCUCGUAAGGAGAAGACUGCGGGUUCGAGUCCUGUACGGAACG, for which the yeast fitness was ≤ 0.5. In the case of GUUCCGUUGGCGUAAUGGUAACGCGACUCACUCCUUAGGAGAAGACUGCGGAUUCGAGUCCCGUACGGAACG, the yeast fitness was ≤ 0.5. Turning to GUUCCGUUGGCGUAAUGCUAACGCGUCUCUCACGUAAGGAGAAGCCGGCGGGUUCGGGUCCCGUACGGAACG, the yeast fitness worked out at 0.688. As for GUUCCGUUGGCAUAAUGGUAACGGGUCUCCCUCCUAAGGCGACGAUUGCGGGUUCGAGUCCCGUACGCUACG, the figure is ≤ 0.5.
